Laboratory results published in paper PMC3837162.

Protein sequences, listed by entry. Tags and fused reporters are not part of them.
UniProt P84095: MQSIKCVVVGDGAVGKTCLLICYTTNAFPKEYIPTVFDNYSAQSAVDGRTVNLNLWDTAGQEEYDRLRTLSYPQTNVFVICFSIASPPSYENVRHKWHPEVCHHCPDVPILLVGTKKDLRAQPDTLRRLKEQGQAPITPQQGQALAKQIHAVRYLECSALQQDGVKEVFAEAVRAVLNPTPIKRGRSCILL
UniProt Q92845: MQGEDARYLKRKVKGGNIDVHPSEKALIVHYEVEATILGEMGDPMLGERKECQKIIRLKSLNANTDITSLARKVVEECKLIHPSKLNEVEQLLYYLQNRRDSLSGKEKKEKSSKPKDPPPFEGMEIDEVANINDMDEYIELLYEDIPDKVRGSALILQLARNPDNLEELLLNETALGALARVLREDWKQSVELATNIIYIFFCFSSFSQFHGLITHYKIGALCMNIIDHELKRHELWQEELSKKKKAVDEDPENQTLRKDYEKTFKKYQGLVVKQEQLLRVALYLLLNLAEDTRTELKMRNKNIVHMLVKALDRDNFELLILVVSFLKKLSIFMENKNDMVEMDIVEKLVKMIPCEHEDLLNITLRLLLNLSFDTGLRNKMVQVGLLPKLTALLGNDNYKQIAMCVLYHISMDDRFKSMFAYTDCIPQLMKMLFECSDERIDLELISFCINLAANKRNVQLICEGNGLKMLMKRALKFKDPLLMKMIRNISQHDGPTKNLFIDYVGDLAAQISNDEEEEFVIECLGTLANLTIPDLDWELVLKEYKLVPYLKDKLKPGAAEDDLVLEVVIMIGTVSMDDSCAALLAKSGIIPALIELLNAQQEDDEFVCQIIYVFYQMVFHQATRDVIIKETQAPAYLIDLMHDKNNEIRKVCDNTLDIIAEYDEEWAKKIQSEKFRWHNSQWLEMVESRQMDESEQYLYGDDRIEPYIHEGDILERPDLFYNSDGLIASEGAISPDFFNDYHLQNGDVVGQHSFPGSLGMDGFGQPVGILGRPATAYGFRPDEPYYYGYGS
UniProt Q86TV6: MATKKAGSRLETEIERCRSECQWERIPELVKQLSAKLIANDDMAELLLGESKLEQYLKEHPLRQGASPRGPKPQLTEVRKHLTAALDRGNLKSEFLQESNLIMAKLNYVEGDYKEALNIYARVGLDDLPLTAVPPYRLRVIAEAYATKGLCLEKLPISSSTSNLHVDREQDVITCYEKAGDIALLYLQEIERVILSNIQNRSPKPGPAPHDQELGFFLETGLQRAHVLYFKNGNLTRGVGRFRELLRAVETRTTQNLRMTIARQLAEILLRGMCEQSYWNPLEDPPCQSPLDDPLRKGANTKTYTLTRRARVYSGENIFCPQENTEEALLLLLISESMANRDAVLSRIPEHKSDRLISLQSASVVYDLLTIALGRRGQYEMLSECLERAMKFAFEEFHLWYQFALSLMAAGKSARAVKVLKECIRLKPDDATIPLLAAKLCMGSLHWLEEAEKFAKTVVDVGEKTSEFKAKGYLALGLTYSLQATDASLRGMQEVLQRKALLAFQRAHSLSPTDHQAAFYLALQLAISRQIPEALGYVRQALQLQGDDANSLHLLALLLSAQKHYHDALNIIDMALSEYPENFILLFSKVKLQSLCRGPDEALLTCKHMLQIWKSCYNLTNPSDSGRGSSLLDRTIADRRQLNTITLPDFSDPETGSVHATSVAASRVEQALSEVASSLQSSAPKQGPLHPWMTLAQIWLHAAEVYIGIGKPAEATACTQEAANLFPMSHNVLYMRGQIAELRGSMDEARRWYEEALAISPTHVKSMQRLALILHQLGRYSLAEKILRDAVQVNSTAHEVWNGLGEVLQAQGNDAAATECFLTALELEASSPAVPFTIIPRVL
UniProt Q96BY6: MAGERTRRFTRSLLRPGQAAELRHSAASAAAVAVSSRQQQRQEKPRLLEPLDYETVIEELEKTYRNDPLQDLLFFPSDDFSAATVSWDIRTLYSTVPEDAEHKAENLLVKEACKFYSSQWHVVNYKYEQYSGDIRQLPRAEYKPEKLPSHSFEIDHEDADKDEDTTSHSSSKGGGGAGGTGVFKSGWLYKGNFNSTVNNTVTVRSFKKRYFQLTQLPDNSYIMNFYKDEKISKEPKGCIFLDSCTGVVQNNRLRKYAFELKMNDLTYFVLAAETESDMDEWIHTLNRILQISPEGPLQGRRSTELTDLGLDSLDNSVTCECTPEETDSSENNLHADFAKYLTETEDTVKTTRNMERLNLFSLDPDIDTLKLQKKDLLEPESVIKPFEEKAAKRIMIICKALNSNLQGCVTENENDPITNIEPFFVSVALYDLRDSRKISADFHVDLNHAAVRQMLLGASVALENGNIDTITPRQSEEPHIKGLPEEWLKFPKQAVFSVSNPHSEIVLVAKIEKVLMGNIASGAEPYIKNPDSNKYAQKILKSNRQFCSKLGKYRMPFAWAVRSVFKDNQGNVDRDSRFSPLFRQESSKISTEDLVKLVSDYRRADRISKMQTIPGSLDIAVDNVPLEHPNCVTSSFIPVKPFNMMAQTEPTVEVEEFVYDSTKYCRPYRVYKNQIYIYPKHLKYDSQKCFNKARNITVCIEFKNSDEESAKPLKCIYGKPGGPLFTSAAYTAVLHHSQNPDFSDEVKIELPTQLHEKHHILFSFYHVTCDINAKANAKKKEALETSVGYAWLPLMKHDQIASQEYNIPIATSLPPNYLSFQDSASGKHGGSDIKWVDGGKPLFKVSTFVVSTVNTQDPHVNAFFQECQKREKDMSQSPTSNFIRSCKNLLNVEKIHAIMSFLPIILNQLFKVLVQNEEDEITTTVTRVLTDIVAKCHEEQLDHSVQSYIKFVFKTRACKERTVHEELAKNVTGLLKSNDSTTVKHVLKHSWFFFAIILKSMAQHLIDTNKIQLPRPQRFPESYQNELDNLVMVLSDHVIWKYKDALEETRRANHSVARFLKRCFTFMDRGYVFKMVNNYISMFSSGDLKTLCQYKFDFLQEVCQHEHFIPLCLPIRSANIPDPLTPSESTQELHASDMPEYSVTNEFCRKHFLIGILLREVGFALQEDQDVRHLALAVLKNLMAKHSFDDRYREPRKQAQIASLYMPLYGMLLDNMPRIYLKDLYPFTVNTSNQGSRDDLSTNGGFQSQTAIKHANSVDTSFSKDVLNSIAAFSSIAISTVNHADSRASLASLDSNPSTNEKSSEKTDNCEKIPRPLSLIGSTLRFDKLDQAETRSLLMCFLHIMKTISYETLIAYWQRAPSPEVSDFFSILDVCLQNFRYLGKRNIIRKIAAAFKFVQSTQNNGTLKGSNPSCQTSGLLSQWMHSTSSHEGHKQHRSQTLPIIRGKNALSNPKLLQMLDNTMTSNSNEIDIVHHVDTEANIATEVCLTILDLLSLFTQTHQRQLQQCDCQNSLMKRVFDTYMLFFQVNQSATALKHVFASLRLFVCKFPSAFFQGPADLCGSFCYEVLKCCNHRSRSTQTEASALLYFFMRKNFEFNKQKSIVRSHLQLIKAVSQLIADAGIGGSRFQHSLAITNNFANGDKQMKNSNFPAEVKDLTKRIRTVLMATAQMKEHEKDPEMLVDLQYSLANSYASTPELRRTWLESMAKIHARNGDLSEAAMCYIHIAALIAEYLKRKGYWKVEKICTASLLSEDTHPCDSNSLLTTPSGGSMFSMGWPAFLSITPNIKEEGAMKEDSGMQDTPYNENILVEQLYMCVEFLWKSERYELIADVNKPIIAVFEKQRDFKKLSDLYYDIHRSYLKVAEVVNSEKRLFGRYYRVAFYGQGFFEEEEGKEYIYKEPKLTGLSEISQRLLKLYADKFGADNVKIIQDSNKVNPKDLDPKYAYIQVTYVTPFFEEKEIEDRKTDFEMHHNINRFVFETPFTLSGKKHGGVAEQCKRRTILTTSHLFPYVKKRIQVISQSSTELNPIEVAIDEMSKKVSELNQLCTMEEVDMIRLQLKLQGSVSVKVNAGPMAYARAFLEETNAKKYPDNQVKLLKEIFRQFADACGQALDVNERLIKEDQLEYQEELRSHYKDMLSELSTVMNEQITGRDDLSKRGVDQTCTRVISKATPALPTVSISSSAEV
UniProt P63027: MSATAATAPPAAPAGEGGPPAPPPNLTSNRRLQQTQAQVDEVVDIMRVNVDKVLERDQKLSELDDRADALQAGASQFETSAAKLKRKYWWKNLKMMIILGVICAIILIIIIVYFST
UniProt Q15058: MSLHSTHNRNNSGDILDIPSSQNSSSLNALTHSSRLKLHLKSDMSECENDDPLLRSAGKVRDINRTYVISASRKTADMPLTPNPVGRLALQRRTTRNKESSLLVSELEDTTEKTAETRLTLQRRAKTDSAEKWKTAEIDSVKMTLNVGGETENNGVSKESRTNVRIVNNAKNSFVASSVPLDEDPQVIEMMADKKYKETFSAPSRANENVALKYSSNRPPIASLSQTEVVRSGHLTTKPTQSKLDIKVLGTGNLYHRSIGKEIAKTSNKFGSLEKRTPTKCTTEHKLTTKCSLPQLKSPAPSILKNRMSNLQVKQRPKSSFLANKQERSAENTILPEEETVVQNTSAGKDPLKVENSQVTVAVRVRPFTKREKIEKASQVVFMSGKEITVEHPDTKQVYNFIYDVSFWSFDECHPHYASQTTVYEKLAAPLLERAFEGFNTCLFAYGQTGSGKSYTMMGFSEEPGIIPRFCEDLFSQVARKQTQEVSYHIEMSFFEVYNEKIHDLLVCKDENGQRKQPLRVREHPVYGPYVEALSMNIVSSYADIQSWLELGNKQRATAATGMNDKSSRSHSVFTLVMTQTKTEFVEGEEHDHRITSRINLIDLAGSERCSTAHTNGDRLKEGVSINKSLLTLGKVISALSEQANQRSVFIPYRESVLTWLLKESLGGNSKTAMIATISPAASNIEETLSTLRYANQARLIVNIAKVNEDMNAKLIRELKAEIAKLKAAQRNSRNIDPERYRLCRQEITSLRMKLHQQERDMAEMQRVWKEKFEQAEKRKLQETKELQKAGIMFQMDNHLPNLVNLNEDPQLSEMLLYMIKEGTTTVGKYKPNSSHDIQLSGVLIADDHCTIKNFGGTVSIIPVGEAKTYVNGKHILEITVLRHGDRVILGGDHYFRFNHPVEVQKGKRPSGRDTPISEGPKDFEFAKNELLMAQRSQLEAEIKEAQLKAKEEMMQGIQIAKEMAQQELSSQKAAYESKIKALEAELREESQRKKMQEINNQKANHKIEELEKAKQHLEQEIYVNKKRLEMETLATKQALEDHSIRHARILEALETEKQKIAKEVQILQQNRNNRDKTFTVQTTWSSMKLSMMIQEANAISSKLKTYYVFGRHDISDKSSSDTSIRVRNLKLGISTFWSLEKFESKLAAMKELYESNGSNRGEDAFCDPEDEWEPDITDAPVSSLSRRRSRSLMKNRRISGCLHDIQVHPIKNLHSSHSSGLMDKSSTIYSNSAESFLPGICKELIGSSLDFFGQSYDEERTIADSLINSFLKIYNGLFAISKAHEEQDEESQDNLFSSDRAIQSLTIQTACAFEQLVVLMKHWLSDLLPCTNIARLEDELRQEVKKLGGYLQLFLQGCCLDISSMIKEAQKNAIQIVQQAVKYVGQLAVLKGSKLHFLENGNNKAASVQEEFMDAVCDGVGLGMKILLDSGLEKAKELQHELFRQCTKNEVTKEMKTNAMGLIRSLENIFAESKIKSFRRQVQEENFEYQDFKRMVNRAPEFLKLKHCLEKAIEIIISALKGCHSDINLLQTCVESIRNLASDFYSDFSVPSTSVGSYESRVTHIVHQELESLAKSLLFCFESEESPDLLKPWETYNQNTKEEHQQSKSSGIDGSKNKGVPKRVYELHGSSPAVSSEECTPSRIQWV
UniProt P48059: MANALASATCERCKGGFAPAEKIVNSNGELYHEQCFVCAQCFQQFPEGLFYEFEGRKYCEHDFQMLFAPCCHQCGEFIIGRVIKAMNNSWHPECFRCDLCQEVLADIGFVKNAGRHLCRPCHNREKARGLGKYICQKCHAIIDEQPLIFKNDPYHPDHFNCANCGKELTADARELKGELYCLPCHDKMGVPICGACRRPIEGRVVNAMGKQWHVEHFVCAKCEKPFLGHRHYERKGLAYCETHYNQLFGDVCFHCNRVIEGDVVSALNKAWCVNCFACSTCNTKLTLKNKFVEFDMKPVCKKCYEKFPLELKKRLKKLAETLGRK

Target: GST-RhoG fusion protein (UniProt P84095)
Assay: affinity purification with mass spectrometry; GTPγS-loaded (100 uM) GST-RhoG-Sepharose beads rotated with washed human platelet lysates (500 ul, 5 x 10^8/ml) for 1 h at 4 °C; bound proteins eluted in Laemmli buffer, SDS-PAGE, in-gel tryptic digestion, LTQ Orbitrap Velos; three donors; only the target purified

Kinesin-associated protein 3 (from UniProt Q92845 1-792)
binding: binds

TTC7B protein (from UniProt Q86TV6 1-843)
binding: binds

DOCK10 (from UniProt Q96BY6 1-2186)
binding: binds

Vesicle-associated membrane protein 2 (from UniProt P63027 1-116)
binding: binds

KIF14 (from UniProt Q15058 1-1648)
binding: binds

DOCK1 (DOCK180) (from UniProt Q14185 1-1865)
binding: binds

LIMS1 (from UniProt P48059 1-325)
binding: binds

B1: MAP7 domain-containing protein 3 (protein, UniProt Q8IWC1 1-876)
chain: MMADGAAAGAGGSPSLRELRARMVAAANEIAKERRKQDVVNRVATHSSNIRSTFKPVIDGSMLKNDIKQRLARERREEKRRQQDANKETQLLEKERKTKLQYEKQMEERQRKLKERKEKEEQRRIAAEEKRHQKDEAQKEKFTAILYRTLERRRLADDYQQKRWSWGGSAMANSESKTANKRSASTEKLEQGTSALIRQMPLSSAGLQNSVAKRKTDKERSSSLNRRDSNLHSSTDKEQAERKPRVTGVTNYVMQYVTVPLRKCTSDELRAVMFPMSTMKIPPQTKVEESPLEKVETPPKASVDAPPQVNVEVFCNTSMEASPKAGVGMAPEVSTDSFPVVSVDVSPVVSTYDSEMSMDASPELSIEALPKVDLETVPKVSIVASPEASLEAPPEVSLEALPEVSVEAAPEGSLEAPPKGSAEVAPKESVKGSPKESMEASPEAMVKASPKTSLEASMEASPKAKARDAPKKSEMDKQALIPIAKKRLSSYTECYKWSSSPENACGLPSPISTNRQIQKNCPPSPLPLISKQSPQTSFPYKIMPIQHTLSVQSASSTVKKKKETVSKTTNRCEALSQRHMIYEESGNKSTAGIMNAEAATKILTELRRLAREQREKEEEERQREEMQQRVIKKSKDMAKEAVGGQAEDHLKLKDGQQQNETKKKKGWLDQEDQEAPLQKGDAKIKAQEEADKRKKEHERIMLQNLQERLERKKRIEEIMKRTRKTDVNASKVTETSSHDIYEEAEADNEESDKDSLNEMFPSAILNGTGSPTKFKMPFNNAKKMTHKLVFLEDGTSQVRKEPKTYFNGDLKNFRQKSMKDTSIQEVVSRPSSKRMTSHTTKTRKADETNTTSRSSAQTKSEGFHDILPKSSDTFRQ
binding: binds

B2: BAI1-associated protein3 (BAP3) (protein, UniProt O94812 1-1187)
chain: MRPRGAAFAAGPPGDLHLGTAIGFAGAIWRSRSPAMSTLLDIKSSVLRQVQVCPSFRRRTEQDPGSASADPQEPATGAWKPGDGVEFFAHMRLMLKKGEGRQGLPCLEVPLRSGSPAPPEPVDPSLGLRALAPEEVEMLYEEALYTVLYRAGTMGPDQVDDEEALLSYLQQVFGTSLEEHTEAIERVRKAKAPTYALKVSVMRAKNLLAKDPNGFSDPYCMLGILPASDATREPRAQKEQRFGFRKGSKRGGPLPAKCIQVTEVKSSTLNPVWKEHFLFEIEDVSTDQLHLDIWDHDDDVSLVEACRKLNEVIGLKGMGRYFKQIVKSARANGTAGPTEDHTDDFLGCLNIPVREVPVAGVDRWFKLEPRSSASRVQGHCHLVLKLITTQRDTAMSQRGRSGFLSHLLLLSHLLRLEHSAEEPNSSSWRGELSTPAATILCLHGAQSNLSPLQLAVLHWQVSSRHHQTCTLDYSYLLGLLEDMQAHWEEAPSLPQEQEESLADSLSAFSEFGLQLLRQLRDYFPATNSTAVHRLELLLKCLGKLQLFQPSFEICPFESELNMDIAAALKRGNREWYDRILNDKSPREQPGPQRLPGLVVLADAVYDDLQFCYSVYASLFHSILNVDVFTLTFRQLERLVAEEAWVLTEELSPKMTLEVASGLFELYLTLADLQRFWDSIPGRDSRSLALAGIHAPFLPAVKLWFQVLRDQAKWRLQGAVDMDTLEPVDASSRHSSSAATAGLCLSHIQELWVRLAWPDPAQAQGLGTQLGQDVCEATLFYTELLRKKVDTQPGAAGEAVSEALCVVLNNVELVRKAAGQALKGLAWPEGATGPEGVLPRPLLSCTQALDDDLQREAHTVTAHLTSKMVGDIRKYVQHISLSPDSIQNDEAVAPLMKYLDEKLALLNASLVKGNLSRVLEALWELLLQAILQALGANRDVSADFYSRFHFTLEALVSFFHAEGQGLPLESLRDGSYKRLKEELRLHKCSTRECIEQFYLDKLKQRTLEQNRFGRLSVRCHYEAAEQRLAVEVLHAADLLPLDANGLSDPFVIVELGPPHLFPLVRSQRTQVKTRTLHPVYDELFYFSVPAEACRRRAACVLFTVMDHDWLSTNDFAGEAALGLGGVTGVARPQVGGGARAGQPVTLHLCRPRAQVRSALRRLEGRTSKEAQEFVKKLKELEKCMEADP
binding: binds

B3: BET1 homolog (protein, UniProt O15155 1-118)
chain: MRRAGLGEGVPPGNYGNYGYANSGYSACEEENERLTESLRSKVTAIKSLSIEIGHEVKTQNKLLAEMDSQFDSTTGFLGKTMGKLKILSRGSQTKLLCYMMLFSLFVFFIIYWIIKLR
binding: binds

B4: Latrophilin-1 (protein, UniProt O94910 25-1474)
chain: LSRAGLPFGLMRRELACEGYPIELRCPGSDVIMVENANYGRTDDKICDADPFQMENVQCYLPDAFKIMSQRCNNRTQCVVVAGSDAFPDPCPGTYKYLEVQYDCVPYKVEQKVFVCPGTLQKVLEPTSTHESEHQSGAWCKDPLQAGDRIYVMPWIPYRTDTLTEYASWEDYVAARHTTTYRLPNRVDGTGFVVYDGAVFYNKERTRNIVKYDLRTRIKSGETVINTANYHDTSPYRWGGKTDIDLAVDENGLWVIYATEGNNGRLVVSQLNPYTLRFEGTWETGYDKRSASNAFMVCGVLYVLRSVYVDDDSEAAGNRVDYAFNTNANREEPVSLTFPNPYQFISSVDYNPRDNQLYVWNNYFVVRYSLEFGPPDPSAGPATSPPLSTTTTARPTPLTSTASPAATTPLRRAPLTTHPVGAINQLGPDLPPATAPVPSTRRPPAPNLHVSPELFCEPREVRRVQWPATQQGMLVERPCPKGTRGIASFQCLPALGLWNPRGPDLSNCTSPWVNQVAQKIKSGENAANIASELARHTRGSIYAGDVSSSVKLMEQLLDILDAQLQALRPIERESAGKNYNKMHKRERTCKDYIKAVVETVDNLLRPEALESWKDMNATEQVHTATMLLDVLEEGAFLLADNVREPARFLAAKENVVLEVTVLNTEGQVQELVFPQEEYPRKNSIQLSAKTIKQNSRNGVVKVVFILYNNLGLFLSTENATVKLAGEAGPGGPGGASLVVNSQVIAASINKESSRVFLMDPVIFTVAHLEDKNHFNANCSFWNYSERSMLGYWSTQGCRLVESNKTHTTCACSHLTNFAVLMAHREIYQGRINELLLSVITWVGIVISLVCLAICISTFCFLRGLQTDRNTIHKNLCINLFLAELLFLVGIDKTQYEIACPIFAGLLHYFFLAAFSWLCLEGVHLYLLLVEVFESEYSRTKYYYLGGYCFPALVVGIAAAIDYRSYGTEKACWLRVDNYFIWSFIGPVSFVIVVNLVFLMVTLHKMIRSSSVLKPDSSRLDNIKSWALGAIALLFLLGLTWAFGLLFINKESVVMAYLFTTFNAFQGVFIFVFHCALQKKVHKEYSKCLRHSYCCIRSPPGGTHGSLKTSAMRSNTRYYTGTQSRIRRMWNDTVRKQTESSFMAGDINSTPTLNRGTMGNHLLTNPVLQPRGGTSPYNTLIAESVGFNPSSPPVFNSPGSYREPKHPLGGREACGMDTLPLNGNFNNSYSLRSGDFPPGDGGPEPPRGRNLADAAAFEKMIISELVHNNLRGSSSAAKGPPPPEPPVPPVPGGGGEEEAGGPGGADRAEIELLYKALEEPLLLPRAQSVLYQSDLDESESCTAEDGATSRPLSSPPGRDSLYASGANLRDSPSYPDSSPEGPSEALPPPPPAPPGPPEIYYTSRPPALVARNPLQGYYQVRRPSHEGYLAAPGLEGPGPDGDGQMQLVTSL
binding: binds

B5: FAM65C (protein, UniProt Q96MK2 1-946)
chain: MSVRLRFLSPGDTGAVGVVGRSASFAGFSSAQSRRIAKSINRNSVRSRMPAKSSKMYGTLRKGSVCADPKPQQVKKIFEALKRGLKEYLCVQQAELDHLSGRHKDTRRNSRLAFYYDLDKQTRCVERHIRKMEFHISKVDELYEDYCIQCRLRDGASSMQRAFARCPPSRAARESLQELGRSLHECAEDMWLIEGALEVHLGEFHIRMKGLVGYARLCPGDHYEVLMRLGRQRWKLKGRIESDDSQTWDEEEKAFIPTLHENLDIKVTELRGLGSLAVGAVTCDIADFFTTRPQVIVVDITELGTIKLQLEVQWNPFDTESFLVSPSPTGKFSMGSRKGSLYNWTPPSTPSFRERYYLSVLQQPTQQALLLGGPRATSILSYLSDSDLRGPSLRSQSQELPEMDSFSSEDPRDTETSTSASTSDVGFLPLTFGPHASIEEEAREDPLPPGLLPEMAHLSGGPFAEQPGWRNLGGESPSLPQGSLFHSGTASSSQNGHEEGATGDREDGPGVALEGPLQEVLELLRPTDSTQPQLRELEYQVLGFRDRLKPCRARQEHTSAESLMECILESFAFLNADFALDELSLFGGSQGLRKDRPLPPPSSLKASSRELTAGAPELDVLLMVHLQVCKALLQKLASPNLSRLVQECLLEEVAQQKHVLETLSVLDFEKVGKATSIEEIIPQASRTKGCLKLWRGCTGPGRVLSCPATTLLNQLKKTFQHRVRGKYPGQLEIACRRLLEQVVSCGGLLPGAGLPEEQIITWFQFHSYLQRQSVSDLEKHFTQLTKEVTLIEELHCAGQAKVVRKLQGKRLGQLQPLPQTLRAWALLQLDGTPRVCRAASARLAGAVRNRSFREKALLFYTNALAENDARLQQAACLALKHLKGIESIDQTASLCQSDLEAVRAAARETTLSFGEKGRLAFEKMDKLCSEQREVFCQEADVEITIF
binding: binds

B6: FAM115C (protein, UniProt A6NFQ2 1-919)
chain: MATIAAAAFEALMDGVTCWDVPRGPIPSELLLIGEAAFPVMVNDKGQVLIAASSYGRGRLVVVSHEGYLSHTGLAPFLLNAVSWLCPCPGAPVGVHPSLAPLVNILQDAGLEAQVKPEPGEPLGVYCINAYNDTLTATLIQFVKHGGGLLIGGQAWYWASQHGPDKVLSRFPGNKVTSVAGVYFTDTYGDRDRFKVSKKVPKIPLHVRYGEDVRQDQQQLLEGISELDIRTGGVPSQLLVHGALAFPLGLDASLNCFLAAAHYGRGRVVLAAHECLLCAPKMGPFLLNAVRWLARGQTGKVGVNTNLKDLCPLLSEHGLQCSLEPHLNSDLCVYCCKAYSDKEAKQLQEFVAEGGGLLIGGQAWWWASQNPGHCPLAGFPGNIILNCFGLSILPQTLKAGCFPVPTPEMRSYHFRKALSQFQAILNHENGNLEKSCLAKLRVDGAAFLQIPAEGVPAYISLHRLLRKMLRGSGLPAVSRENPVASDSYEAAVLSLATGLAHSGTDCSQLAQGLGTWTCSSSLYPSKHPITVEINGINPGNNDCWVSTGLYLLEGQNAEVSLSEAAASAGLRVQIGCHTDDLTKARKLSRAPVVTHQCWMDRTERSVSCLWGGLLYVIVPKGSQLGPVPVTIRGAVPAPYYKLGKTSLEEWKRQMQENLAPWGELATDNIILTVPTTNLQALKDPEPVLRLWDEMMQAVARLAAEPFPFRRPERIVADVQISAGWMHSGYPIMCHLESVKEIINEMDMRSRGVWGPIHELGHNQQRHGWEFPPHTTEATCNLWSVYVHETVLGIPRAQAHEALSPPERERRIKAHLGKGAPLCDWNVWTALETYLQLQEAFGWEPFTQLFAEYQTLSHLPKDNTGRMNLWVKKFSEKVKKNLVPFFEAWGWPIQKEVADSLASLPEWQENPMQVYLRARK
binding: binds

B7: Myosin regulatory light chain 12A (protein, UniProt P19105 1-171)
chain: MSSKRTKTKTKKRPQRATSNVFAMFDQSQIQEFKEAFNMIDQNRDGFIDKEDLHDMLASLGKNPTDEYLDAMMNEAPGPINFTMFLTMFGEKLNGTDPEDVIRNAFACFDEEATGTIQEDYLRELLTTMGDRFTDEEVDELYREAPIDKKGNFNYIEFTRILKHGAKDKDD
binding: binds

No constants are given. Whether binding was seen depends on the method and setting. Binding seen in cells or lysates may run through a third protein. Here binding means that the protein was enriched with, or labelled near, the bait; the list need not be complete.
